Reference: paper PMC10564737, “Structure-based design of a phosphotyrosine-masked covalent ligand targeting the E3 ligase SOCS2” (Nature Communications, 2023)
Several values for one entry are separate records, joined by “and”; a condition that tells them apart may be missing. Equal values may be shown once. This continues a long series; more values of the same kind are listed elsewhere.

Protein sequences, listed by entry. Tags and fused reporters are not part of them. Residues count along the entry.
UniProt O14508, 32-198: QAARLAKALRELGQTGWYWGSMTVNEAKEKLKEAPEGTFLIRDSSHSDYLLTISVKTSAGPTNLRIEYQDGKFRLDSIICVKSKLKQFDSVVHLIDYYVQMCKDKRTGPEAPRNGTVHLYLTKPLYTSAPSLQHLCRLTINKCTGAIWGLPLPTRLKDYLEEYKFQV

Target: T1, SBC2 (Homo sapiens, UniProt O14508)
T1 construct: SOCS2 (amino acids 32–198); His6 (N, cleaved yes); made in house; host or cells: E. coli BL21(DE3)
Experiment: Covalent fluorescence polarization (FP) probe displacement assay
Format: binding
Source text: With the specific covalent modification of Cys111 established, we decided to fully characterize MN551 as a covalent SOCS2 inhibitor. […] (Fig. 2g, h, Supplementary Fig. 9). Due to the covalent nature of the competing inhibitor, a time-dependent reduction in the fraction of protein-bound probe is observed. […] This value illustrates reasonable specificity for a covalent inhibitor, with nonetheless scope for future optimization. In addition to characterizing the kinetic covalency parameters, we have also assessed the stability of the MN551 by monitoring its reactivity (half-life >70 min) with reduced glutathione (GSH) (Supplementary Fig. 10)[35].
To monitor the SBC2-ligand binding kinetics we designed a fluorescein-labeled small-molecule probe - compound 26. The fluorescence polarization (anisotropy) of a threefold serial dilution of 50 µM SBC2 in 10 nM of the probe in 100 mM HEPES pH 7.5, 50 mM NaCl, 0.5 mM TCEP, 2% DMSO was measured to determine the KL (Supplementary Fig. 9A) (BMG Labtech PHERAstar – firmware v1.33). Protein titration and the curves were fitted using GraphPad Prism 9, using one-site fitting models to determine the probe binding constant, KL. Samples were run in triplicate in 384 well plates, using a total volume per well of 16 μL. The bound fraction of the probe is measure using the equation:1 Fb=Af−A/Af−Ab Where,
A time-dependent reduction in probe anisotropy were measured for a 2-fold serial dilution of […] compound MN551 in 10 nM probe +300 μM SBC2. To determine the initial reversible binding affinity, the initial bound fraction of the probe at time = 0, Fbo (the y-intercept in Fb v/s Time plot, Supplementary Fig. 9B) was plotted against MN551 concentration, and the obtained IC50 is then converted to Ki (Supplementary Fig. 9C)[17]. The slope from Fb versus time graph when divided by Fbo gives rate of covalency, kobs. A plot of kobs v/s MN551 concentration using Michaelis–Menten model of GraphPad Prism 9, provides the parameters kinact (maximum potential rate of inactivation) and KI (concentration of MN551 at which kobs = kinact/2) (Supplementary Fig. 9D, E).
The observed first-order rate constant, kobs is related to KI and kinact by the equation:2 kobs=kinactI/KI+I
At [I]«[KI] the above equation is converted to3 […]
The slope from the plot of kobs against concentration of MN551 gives us the covalent efficiency parameter kinact/KI (Supp Fig. 9F)[30],[33].

[1] = MN551 94.8645 nM; Cycle 14 (65 min); n=1
[2] = MN551 94.8645 nM; Cycle 15 (70 min); n=1
[3] = MN551 94.8645 nM; Cycle 16 (75 min); n=1
[4] = MN551 97.6562 nM, Cycle 8 (35 min)
[5] = MN551 97.6562 nM, Cycle 9 (40 min)
[6] = MN551 97.6562 nM, Cycle 10 (45 min)
[7] = MN551 97.6562 nM; Cycle 6 (25 min)
[8] = MN551 97.6562 nM; Cycle 7 (30 min)
[9] = MN551 97.6562 nM; Cycle 8 (35 min)
[10] = MN551 97.6562 nM; Cycle 9 (40 min)
[11] = MN551 97.6562 nM; Cycle 10 (45 min)
[12] = MN551 97.6562 nM; Cycle 12 (55 min); n=1
[13] = MN551 97.6562 nM; Cycle 13 (60 min); n=1
[14] = MN551 97.6562 nM; Cycle 14 (65 min); n=1
[15] = MN551 97.6562 nM; Cycle 15 (70 min); n=1
[16] = MN551 97.6562 nM; Cycle 16 (75 min); n=1
[17] = MN551 132.81 nM, Cycle 8 (35 min)
[18] = MN551 132.81 nM, Cycle 9 (40 min)
[19] = MN551 132.81 nM, Cycle 10 (45 min)
[20] = MN551 132.81 nM, Cycle 11 (50 min)
[21] = MN551 132.81 nM, Cycle 16 (75 min), n=1
[22] = MN551 132.81 nM, Cycle 17 (80 min), n=1
[23] = MN551 132.81 nM, Cycle 18 (85 min), n=1
[24] = MN551 132.81 nM; Cycle 7 (30 min)
[25] = MN551 132.81 nM; Cycle 8 (35 min)

## O=C(CCl)Nc1cccc(CNC(=O)[C@H](Cc2ccc(OP(=O)(O)O)cc2)NC(=O)Cc2ccc(F)cc2)c1 [MN551]
[1]
  Anisotropy: 267.2 and 260.7 and 259.4
  Anisotropy based on Raw Data (485): 272.6 and 273.5 and 271.2
[2]
  Anisotropy: 266.7 and 258.8 and 259.1
  Anisotropy based on Raw Data (485): 270.1 and 271.9
[3]
  Anisotropy: 267.4 and 256.2 and 257.5
  Anisotropy based on Raw Data (485): 269.4 and 270.5 and 267.5
MN551 94.8645 nM; Cycle 19 (90 min); n=1
  Anisotropy data 485,520,520: 271.1 and 270.1 and 264.5
MN551 94.8645 nM; Cycle 20 (95 min); n=1
  Anisotropy data 485,520,520: 269.6 and 267.9 and 263.4
MN551 97.6562 nM, Cycle 7 (30 min)
  Fb: 0.8526 and 0.9724 and 0.9434
[4]
  Anisotropy based on Raw Data (485): 279.9 and 281.1 and 276.7
  Fb: 0.8704 and 0.9742 and 0.944
[5]
  Anisotropy based on Raw Data (485): 277.4 and 278.3 and 274.8
  Fb: 0.8422 and 0.9665 and 0.9391
[6]
  Anisotropy based on Raw Data (485): 278.2 and 278 and 273.2
  Fb: 0.8481 and 0.9518 and 0.942
MN551 97.6562 nM, Cycle 11 (50 min)
  Anisotropy based on Raw Data (485): 277.4 and 278.8 and 270
MN551 97.6562 nM, Cycle 13 (60 min), n=1
  Anisotropy: 277.6 and 278.4
MN551 97.6562 nM, Cycle 14 (65 min), n=1
  Anisotropy: 276 and 278.5 and 272.7
MN551 97.6562 nM, Cycle 15 (70 min), n=1
  Anisotropy: 276.3 and 276.5 and 273.3
MN551 97.6562 nM, Cycle 16 (75 min), n=1
  Anisotropy: 276.1 and 276.2 and 272.3
MN551 97.6562 nM, Cycle 17 (80 min), n=1
  Anisotropy: 275.7 and 275.8 and 270.2
MN551 97.6562 nM; Cycle 3 (10 min)
  Fb, fraction bound: 1.028 and 1.02 and 0.9982
MN551 97.6562 nM; Cycle 4 (15 min)
  Fb, fraction bound: 1.01 and 1.014 and 0.9845
MN551 97.6562 nM; Cycle 5 (20 min)
  Fb, fraction bound: 1.005 and 1.078 and 0.9835
[7]
  Anisotropy data 485,520,520: 280 and 277 and 279.2
  Fb: 1.001 and 0.9519 and 0.9691
  Fb, fraction bound: 1.002 and 1.058 and 0.979
[8]
  Anisotropy data 485,520,520: 276.3 and 277.9
  Fb: 1.0109 and 0.9669 and 1.006
  Fb, fraction bound: 1.02 and 1.03 and 1.007
[9]
  Anisotropy: 281.7 and 281.5 and 277.6
  Anisotropy data 485,520,520: 278.5 and 276 and 278
  Fb: 1.014 and 0.9552 and 0.9991 and 1.021 and 1.008 and 0.9812
[10]
  Anisotropy: 281.1 and 282.7 and 280.1
  Anisotropy data 485,520,520: 276 and 273.5 and 277.4
  Fb: 1.014 and 0.9453 and 0.9991 and 1.002 and 1.036 and 1.016
[11]
  Anisotropy: 279.2 and 282.3 and 276.3
  Anisotropy data 485,520,520: 274 and 272 and 275
  Fb: 1.011 and 0.9428 and 0.9885 and 0.9942 and 1.046 and 0.9833
MN551 97.6562 nM; Cycle 11 (50 min); n=1
  Anisotropy: 274 and 273.6 and 273.5
[12]
  Anisotropy: 274 and 271.6 and 272.1
  Anisotropy based on Raw Data (485): 277.7 and 279 and 270.9
[13]
  Anisotropy: 271.3 and 272 and 270.5
  Anisotropy based on Raw Data (485): 277.8 and 276.4 and 273.2
[14]
  Anisotropy: 274.6 and 269.4 and 270.7
  Anisotropy based on Raw Data (485): 277.3 and 276.1 and 269.7
[15]
  Anisotropy: 272.4 and 269 and 267.6
  Anisotropy based on Raw Data (485): 273 and 276.1 and 270
[16]
  Anisotropy: 270.8 and 268.2
  Anisotropy based on Raw Data (485): 272.7 and 274.8 and 268.7
MN551 97.6562 nM; Cycle 19 (90 min); n=1
  Anisotropy data 485,520,520: 273.3 and 275.9 and 270.9
MN551 97.6562 nM; Cycle 20 (95 min); n=1
  Anisotropy data 485,520,520: 271.7 and 272.1 and 268.6
MN551 132.81 nM, Cycle 7 (30 min)
  Fb: 0.8938 and 0.8581 and 0.9072
[17]
  Anisotropy based on Raw Data (485): 278.1 and 277.5 and 269.6
  Fb: 0.8824 and 0.8731 and 0.8744
[18]
  Anisotropy based on Raw Data (485): 278.3 and 277.1 and 270.5
  Fb: 0.8503 and 0.8817 and 0.8713
[19]
  Anisotropy based on Raw Data (485): 276.8 and 275.5 and 269.1
  Fb: 0.9053 and 0.9152 and 0.8956
[20]
  Anisotropy based on Raw Data (485): 276.8 and 273.8 and 269.7
  Fb: 0.8769 and 0.8476 and 0.9061
MN551 132.81 nM, Cycle 13 (60 min), n=1
  Anisotropy: 271.9 and 271.1 and 267.7
MN551 132.81 nM, Cycle 14 (65 min), n=1
  Anisotropy: 271.2 and 270.4 and 268.8
MN551 132.81 nM, Cycle 15 (70 min), n=1
  Anisotropy: 269.3 and 271.2 and 266.4
[21]
  Anisotropy: 268.9 and 269.2 and 269.3
  Normalised anisotropy (0 nM MN551 = 1, free probe = 0): 0.9377 and 0.9642 and 0.9598
[22]
  Anisotropy: 269.4 and 269.2 and 265.8
  Normalised anisotropy (0 nM MN551 = 1, free probe = 0): 0.9673 and 0.9565 and 0.9541
[23]
  Anisotropy: 269.6 and 268.6 and 266.1
  Normalised anisotropy (0 nM MN551 = 1, free probe = 0): 0.9797 and 0.9655 and 0.9841
MN551 132.81 nM; Cycle 4 (15 min)
  Fb, fraction bound: 1.013 and 0.9868 and 1.0124
MN551 132.81 nM; Cycle 5 (20 min)
  Fb, fraction bound: 0.9971 and 0.9831 and 0.9825
MN551 132.81 nM; Cycle 6 (25 min)
  Fb, fraction bound: 0.9879 and 0.9837 and 0.9753
[24]
  Anisotropy data 485,520,520: 271.5 and 262.4 and 267
  Fb: 0.9912 and 1.021 and 1.043
  Fb, fraction bound: 0.9586 and 0.971 and 0.9924
[25]
  Anisotropy: 278.1 and 274.8 and 272.7
  Anisotropy data 485,520,520: 271 and 263.9 and 265.1
  Fb: 0.9923 and 1.029 and 1.03 and 1.014 and 0.9576 and 0.9718
MN551 132.81 nM; Cycle 9 (40 min)
  Anisotropy: 274.1 and 273.8 and 271.9
